Strings that start with PEPTIDE1 are HELM notation: dots part the residues, brackets hold end groups and non-standard residues.

These results are taken from US4774320A (Sclavo S.p.A., priority 1986, dated 1988).

A short description of this data set: peptide synthesis. As to conditions: whole synthesis, scale 0.2 mmol.

PEPTIDE1{V.Q.G.E.E.S.N.D.K}$$$$V2.0 yielded an isolated mass of 126 mg. In addition, the isolated yield (calculated with respect to the quantity of the first amino acid bound to the resin) was 63%.
